From PMC9995517
No constants are given. Whether binding was seen depends on the method and setting. Sequences can lack the tags named with a protein.

Biological target: T1, tyrosyl-tRNA synthetase, wild type, recombinant Xpress-6xHis tagged (His-YARS1^WT) (human) (UniProt P54577)
T1 sequence: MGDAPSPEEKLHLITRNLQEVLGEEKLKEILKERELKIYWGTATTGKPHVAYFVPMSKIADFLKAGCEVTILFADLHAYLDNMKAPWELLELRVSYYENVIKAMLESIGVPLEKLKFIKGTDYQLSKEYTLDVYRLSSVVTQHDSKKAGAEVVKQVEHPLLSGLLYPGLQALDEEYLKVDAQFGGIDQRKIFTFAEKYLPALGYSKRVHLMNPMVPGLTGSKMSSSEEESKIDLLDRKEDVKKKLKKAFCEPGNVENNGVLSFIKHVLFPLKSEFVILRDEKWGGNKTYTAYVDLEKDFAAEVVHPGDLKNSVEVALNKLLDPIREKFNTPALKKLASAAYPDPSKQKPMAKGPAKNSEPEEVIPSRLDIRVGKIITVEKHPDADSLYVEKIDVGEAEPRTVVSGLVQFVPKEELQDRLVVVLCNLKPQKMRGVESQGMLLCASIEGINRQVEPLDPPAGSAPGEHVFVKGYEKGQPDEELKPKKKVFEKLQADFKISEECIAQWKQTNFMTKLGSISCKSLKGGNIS
Assay: pull-down; recombinant His-YARS1 preincubated individually with GST-PLS3 or α-actinin and magnetic Dynabeads, 20 min at room temperature; 50 mM NaP pH 8.0, 300 mM NaCl, 0.01% Tween-20; four washes; imidazole elution; SDS-PAGE, Coomassie; both purified

binding: no binding
Substance: α-actinin (Cytoskeleton)
